Counter-ions that a name gives are not always drawn.
Assay: Reactivity with Alexa 488 DIBO (click chemistry), analysed by cation exchange chromatography
Conditions: Trastuzumab IgG antibodies with o-Az-Z-Lys; 100% when two molecules of Alexa 488 are added; Table 9
For `Nc1cccc(COC(=O)NCCCC[C@H](N)C(=O)O)c1` [meta-amino-Z-lysine, N6-{[(3-aminobenzyl)oxy]carbonyl}-L-lysine hydrochloride], the “Reactivity (%)” value was 90.1%. In the case of `N[C@@H](CCCCNC(=O)OCc1cccc(C=O)c1)C(=O)O` [meta-formyl-Z-lysine, N6-{[(3-formylbenzyl)oxy]carbonyl}-L-lysine hydrochloride], the “Reactivity (%)” value is reported as 88.4%.

Same assay, conditions: Trastuzumab-Fabs with o-Az-Z-Lys at a plurality of sites; 100% when every o-Az-Z-Lys carries Alexa 488; Table 8
In the case of `[N-]=[N+]=Nc1cccc(COC(=O)NCCCC[C@H](N)C(=O)O)c1` [meta-azido-Z-lysine, N6-{[(3-azidobenzyl)oxy]carbonyl}-L-lysine hydrochloride], the “Reactivity (%)” value is reported as 79.2%. For `C#Cc1cccc(COC(=O)NCCCC[C@H](N)C(=O)O)c1` [meta-ethynyl-Z-lysine, N6-{[(3-ethynylbenzyl)oxy]carbonyl}-L-lysine hydrochloride], the “Reactivity (%)” value was 82.2%. For `[N-]=[N+]=Nc1ccccc1COC(=O)NCCCC[C@H](N)C(=O)O` [ortho-azido-Z-lysine, N6-{[(2-azidobenzyl)oxy]carbonyl}-L-lysine hydrochloride], the “Reactivity (%)” value was 84.2%. In the case of `C#Cc1ccccc1COC(=O)NCCCC[C@H](N)C(=O)O` [ortho-ethynyl-Z-lysine, N6-{[(2-ethynylbenzyl)oxy]carbonyl}-L-lysine hydrochloride], the “Reactivity (%)” value is reported as 92.8%. For `[N-]=[N+]=Nc1ccc(COC(=O)NCCCC[C@H](N)C(=O)O)cc1` [para-azido-Z-lysine, N6-{[(4-azidobenzyl)oxy]carbonyl}-L-lysine hydrochloride], the “Reactivity (%)” value was 71.1%. For `C#Cc1ccc(COC(=O)NCCCC[C@H](N)C(=O)O)cc1` [para-ethynyl-Z-lysine, N6-{[(4-ethynylbenzyl)oxy]carbonyl}-L-lysine hydrochloride], the “Reactivity (%)” value was 81.2%.

Reference: patent US10906990B2, “Antibody with non-natural amino acid introduced therein” (RIKEN, priority 2015, dated 2021)
